Reference: publication doi:10.1101/2021.09.29.461190
Results are given in words; binding and its absence hold for the method and conditions named. For some of these results: Binding seen in cells or lysates may run through a third protein. Some results given as binding are weak or reduced against the parent protein; the word gives no strength. Tags and fused reporters may be left off the sequences shown.

By UniProt entry, the sequences of proteins in these tests, tags left out. Where a name states a change or a piece, a line headed by the entry shows the natural chain unless it says otherwise. Chains listed by the source or under a name are the forms on record and can include a tag or linker.
UniProt Q9LS94: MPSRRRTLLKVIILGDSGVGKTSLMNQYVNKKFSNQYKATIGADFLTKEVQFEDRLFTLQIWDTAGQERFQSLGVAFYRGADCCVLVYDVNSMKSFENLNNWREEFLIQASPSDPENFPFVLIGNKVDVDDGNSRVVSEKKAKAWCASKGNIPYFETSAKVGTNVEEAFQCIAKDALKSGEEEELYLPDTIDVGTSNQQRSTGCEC
UniProt P28188: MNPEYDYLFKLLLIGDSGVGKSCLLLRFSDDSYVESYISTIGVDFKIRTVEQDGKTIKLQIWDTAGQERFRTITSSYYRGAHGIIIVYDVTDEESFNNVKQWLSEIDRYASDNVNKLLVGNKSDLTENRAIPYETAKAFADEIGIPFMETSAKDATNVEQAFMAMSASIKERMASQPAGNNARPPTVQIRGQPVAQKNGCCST
UniProt O04157: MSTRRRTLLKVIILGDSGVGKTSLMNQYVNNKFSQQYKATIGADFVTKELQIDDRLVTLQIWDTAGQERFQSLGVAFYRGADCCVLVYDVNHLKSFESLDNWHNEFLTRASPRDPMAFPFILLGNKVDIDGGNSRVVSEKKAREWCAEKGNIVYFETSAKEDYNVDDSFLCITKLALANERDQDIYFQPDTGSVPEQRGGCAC
RFP-RABG3b constitutive active (CA) (O04157, form named): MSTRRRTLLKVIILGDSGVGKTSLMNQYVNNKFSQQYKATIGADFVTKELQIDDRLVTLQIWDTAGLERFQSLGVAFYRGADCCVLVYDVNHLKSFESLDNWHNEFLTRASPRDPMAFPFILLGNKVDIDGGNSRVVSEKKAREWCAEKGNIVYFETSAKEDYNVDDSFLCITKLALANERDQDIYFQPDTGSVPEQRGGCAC
RFP-RABG3b dominant-negative (DN) (O04157, form named): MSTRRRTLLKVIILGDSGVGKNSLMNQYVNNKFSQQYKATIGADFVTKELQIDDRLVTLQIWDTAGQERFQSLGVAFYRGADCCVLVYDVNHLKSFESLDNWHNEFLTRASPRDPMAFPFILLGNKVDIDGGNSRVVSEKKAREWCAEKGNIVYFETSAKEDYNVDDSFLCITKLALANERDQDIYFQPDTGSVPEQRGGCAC

T1: NET4A-GFP (Arabidopsis thaliana) (UniProt F4KEW8)
T1 sequence: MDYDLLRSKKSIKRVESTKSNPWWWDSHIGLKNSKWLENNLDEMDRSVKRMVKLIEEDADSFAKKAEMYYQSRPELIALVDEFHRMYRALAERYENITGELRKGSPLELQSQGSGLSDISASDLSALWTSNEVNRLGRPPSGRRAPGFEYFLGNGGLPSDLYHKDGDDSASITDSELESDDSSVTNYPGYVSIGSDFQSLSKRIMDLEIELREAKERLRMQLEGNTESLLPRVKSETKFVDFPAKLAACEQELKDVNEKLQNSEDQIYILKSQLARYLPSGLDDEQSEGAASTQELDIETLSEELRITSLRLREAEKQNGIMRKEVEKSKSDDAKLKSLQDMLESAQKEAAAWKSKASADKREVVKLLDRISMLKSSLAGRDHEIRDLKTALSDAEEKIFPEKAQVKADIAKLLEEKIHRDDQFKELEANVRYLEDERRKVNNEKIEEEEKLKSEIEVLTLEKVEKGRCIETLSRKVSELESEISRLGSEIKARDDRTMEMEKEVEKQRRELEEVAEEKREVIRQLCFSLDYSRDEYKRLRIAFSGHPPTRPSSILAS

T2: NET4B residues 464-511 (RABG3 binding domain), yeast two-hybrid bait (Arabidopsis thaliana) (UniProt Q84VY2)
T2 sequence: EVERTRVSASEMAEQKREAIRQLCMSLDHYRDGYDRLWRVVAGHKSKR

T3: RABG3a wild type, yeast two-hybrid fusion (Arabidopsis thaliana) (UniProt Q948K8)
T3 sequence: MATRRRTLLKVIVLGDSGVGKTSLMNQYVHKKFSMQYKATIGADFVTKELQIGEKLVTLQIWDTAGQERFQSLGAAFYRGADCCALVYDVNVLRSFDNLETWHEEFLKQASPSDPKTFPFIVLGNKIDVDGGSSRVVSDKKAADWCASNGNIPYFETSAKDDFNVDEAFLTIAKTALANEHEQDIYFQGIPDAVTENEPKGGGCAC

T4: NET4B, full length, yeast two-hybrid fusion (Arabidopsis thaliana) (UniProt Q84VY2)
T4 sequence: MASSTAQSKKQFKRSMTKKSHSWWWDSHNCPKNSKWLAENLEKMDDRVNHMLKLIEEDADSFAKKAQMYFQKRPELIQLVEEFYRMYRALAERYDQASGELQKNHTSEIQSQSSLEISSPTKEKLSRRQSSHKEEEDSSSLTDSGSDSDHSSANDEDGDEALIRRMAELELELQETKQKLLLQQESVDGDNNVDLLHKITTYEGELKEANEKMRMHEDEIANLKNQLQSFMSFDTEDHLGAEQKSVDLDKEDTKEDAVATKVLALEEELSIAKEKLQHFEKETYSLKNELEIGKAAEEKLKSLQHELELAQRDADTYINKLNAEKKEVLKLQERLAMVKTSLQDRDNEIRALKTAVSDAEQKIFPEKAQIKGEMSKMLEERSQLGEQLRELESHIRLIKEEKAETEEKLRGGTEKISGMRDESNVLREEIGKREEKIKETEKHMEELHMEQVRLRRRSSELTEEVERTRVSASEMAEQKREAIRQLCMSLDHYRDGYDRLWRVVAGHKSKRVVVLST

T5: CA-RABG3a (Q67L), yeast two-hybrid fusion (Arabidopsis thaliana) (UniProt Q948K8)
T5 sequence: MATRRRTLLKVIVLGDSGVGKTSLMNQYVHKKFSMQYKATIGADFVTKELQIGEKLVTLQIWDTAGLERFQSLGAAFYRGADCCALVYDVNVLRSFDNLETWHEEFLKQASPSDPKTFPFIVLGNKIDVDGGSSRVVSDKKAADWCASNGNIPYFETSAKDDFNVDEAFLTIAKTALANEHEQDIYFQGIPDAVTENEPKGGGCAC

T6: RABF2a, yeast two-hybrid bait (Arabidopsis thaliana) (UniProt P31582)
T6 sequence: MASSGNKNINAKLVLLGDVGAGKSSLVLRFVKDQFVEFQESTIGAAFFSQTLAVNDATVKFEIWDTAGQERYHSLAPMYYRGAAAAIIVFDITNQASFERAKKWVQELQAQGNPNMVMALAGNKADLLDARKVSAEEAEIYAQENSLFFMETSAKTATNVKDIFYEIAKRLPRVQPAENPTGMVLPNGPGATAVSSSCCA

T7: DN-RABG3a (T22N), yeast two-hybrid fusion (Arabidopsis thaliana) (UniProt Q948K8)
T7 sequence: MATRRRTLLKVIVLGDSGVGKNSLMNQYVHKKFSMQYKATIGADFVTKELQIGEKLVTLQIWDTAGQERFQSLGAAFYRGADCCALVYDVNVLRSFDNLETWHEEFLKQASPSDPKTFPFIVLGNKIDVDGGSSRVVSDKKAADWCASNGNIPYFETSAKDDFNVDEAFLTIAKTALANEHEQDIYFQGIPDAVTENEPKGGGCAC

T8: RABA5c, yeast two-hybrid bait (Arabidopsis thaliana) (UniProt P28187)
T8 sequence: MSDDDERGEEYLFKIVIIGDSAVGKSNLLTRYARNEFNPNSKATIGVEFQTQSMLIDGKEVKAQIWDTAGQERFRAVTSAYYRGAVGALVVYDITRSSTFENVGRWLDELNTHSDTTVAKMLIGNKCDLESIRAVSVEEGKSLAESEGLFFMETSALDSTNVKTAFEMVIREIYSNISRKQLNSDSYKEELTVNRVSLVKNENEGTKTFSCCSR


Key:
[1] = molecular target: T1, NET4A-GFP (Arabidopsis thaliana); assay: co-IP
[2] = molecular target: T2, NET4B residues 464-511 (RABG3 binding domain), yeast two-hybrid bait (Arabidopsis thaliana); assay: two-hybrid
[3] = molecular target: NET4A, full length, yeast two-hybrid fusion (Arabidopsis thaliana) (UniProt F4KEW8); assay: two-hybrid
[4] = molecular target: T3, RABG3a wild type, yeast two-hybrid fusion (Arabidopsis thaliana); assay: two-hybrid
[5] = molecular target: RABG3f wild type, yeast two-hybrid fusion (Arabidopsis thaliana) (UniProt Q9LS94); assay: two-hybrid
[6] = molecular target: T4, NET4B, full length, yeast two-hybrid fusion (Arabidopsis thaliana); assay: two-hybrid
[7] = molecular target: CA-RABG3f (Q67L), yeast two-hybrid fusion (Arabidopsis thaliana) (UniProt Q9LS94); assay: two-hybrid
[8] = molecular target: T5, CA-RABG3a (Q67L), yeast two-hybrid fusion (Arabidopsis thaliana); assay: two-hybrid
[9] = molecular target: T6, RABF2a, yeast two-hybrid bait (Arabidopsis thaliana); assay: two-hybrid
[10] = molecular target: T7, DN-RABG3a (T22N), yeast two-hybrid fusion (Arabidopsis thaliana); assay: two-hybrid
[11] = molecular target: RABD2a, yeast two-hybrid bait (Arabidopsis thaliana) (UniProt P28188); assay: two-hybrid
[12] = molecular target: T8, RABA5c, yeast two-hybrid bait (Arabidopsis thaliana); assay: two-hybrid
[13] = molecular target: DN-RABG3f (T22N), yeast two-hybrid fusion (Arabidopsis thaliana) (UniProt Q9LS94); assay: two-hybrid

Row | Molecule | binding [1] | binding [4] | binding [5] | binding [6] | binding [7] | binding [8] | binding [9] | binding [10] | binding [11] | binding [12] | binding [13] | other results
1 | CA-RABG3a (Q67L), yeast two-hybrid fusion (protein, UniProt Q948K8 1-206) MATRRRTLLKVIVLGDSGVGKTSLMNQYVHKKFSMQYKATIGADFVTKELQIGEKLVTLQIWDTAGLERFQSLGAAFYRGADCCALVYDVNVLRSFDNLETWHEEFLKQASPSDPKTFPFIVLGNKIDVDGGSSRVVSDKKAADWCASNGNIPYFETSAKDDFNVDEAFLTIAKTALANEHEQDIYFQGIPDAVTENEPKGGGCAC | – | – | – | – | – | – | – | – | – | – | – | binding [2]: binds
2 | NET4A, full length, yeast two-hybrid fusion (protein, UniProt F4KEW8 1-558) MDYDLLRSKKSIKRVESTKSNPWWWDSHIGLKNSKWLENNLDEMDRSVKRMVKLIEEDADSFAKKAEMYYQSRPELIALVDEFHRMYRALAERYENITGELRKGSPLELQSQGSGLSDISASDLSALWTSNEVNRLGRPPSGRRAPGFEYFLGNGGLPSDLYHKDGDDSASITDSELESDDSSVTNYPGYVSIGSDFQSLSKRIMDLEIELREAKERLRMQLEGNTESLLPRVKSETKFVDFPAKLAACEQELKDVNEKLQNSEDQIYILKSQLARYLPSGLDDEQSEGAASTQELDIETLSEELRITSLRLREAEKQNGIMRKEVEKSKSDDAKLKSLQDMLESAQKEAAAWKSKASADKREVVKLLDRISMLKSSLAGRDHEIRDLKTALSDAEEKIFPEKAQVKADIAKLLEEKIHRDDQFKELEANVRYLEDERRKVNNEKIEEEEKLKSEIEVLTLEKVEKGRCIETLSRKVSELESEISRLGSEIKARDDRTMEMEKEVEKQRRELEEVAEEKREVIRQLCFSLDYSRDEYKRLRIAFSGHPPTRPSSILAS | – | binds | binds | binds | binds | binds | no binding | no binding | no binding | no binding | no binding | binding [3]: binds
3 | NET4B, full length, yeast two-hybrid fusion (protein, UniProt Q84VY2 1-517) MASSTAQSKKQFKRSMTKKSHSWWWDSHNCPKNSKWLAENLEKMDDRVNHMLKLIEEDADSFAKKAQMYFQKRPELIQLVEEFYRMYRALAERYDQASGELQKNHTSEIQSQSSLEISSPTKEKLSRRQSSHKEEEDSSSLTDSGSDSDHSSANDEDGDEALIRRMAELELELQETKQKLLLQQESVDGDNNVDLLHKITTYEGELKEANEKMRMHEDEIANLKNQLQSFMSFDTEDHLGAEQKSVDLDKEDTKEDAVATKVLALEEELSIAKEKLQHFEKETYSLKNELEIGKAAEEKLKSLQHELELAQRDADTYINKLNAEKKEVLKLQERLAMVKTSLQDRDNEIRALKTAVSDAEQKIFPEKAQIKGEMSKMLEERSQLGEQLRELESHIRLIKEEKAETEEKLRGGTEKISGMRDESNVLREEIGKREEKIKETEKHMEELHMEQVRLRRRSSELTEEVERTRVSASEMAEQKREAIRQLCMSLDHYRDGYDRLWRVVAGHKSKRVVVLST | – | binds | binds | binds | binds | binds | no binding | no binding | no binding | no binding | no binding | –

More lines, main results first:

Row | binding [1] | Molecule | binding [4] | binding [5] | binding [6] | binding [7] | binding [8] | binding [9] | binding [10] | binding [11] | binding [12] | binding [13] | other results
4 | binds | RFP-RABG3b constitutive active (CA) (from UniProt O04157 1-203) | – | – | – | – | – | – | – | – | – | – | –
5 | no binding | RFP-RABG3b dominant-negative (DN) (from UniProt O04157 1-203) | – | – | – | – | – | – | – | – | – | – | –
6 | binds | RFP-RABG3b wild type (from UniProt O04157 1-203) | – | – | – | – | – | – | – | – | – | – | –
